No constants are given. Whether binding was seen depends on the method and setting. Binding seen in cells or lysates may run through a third protein. Some entries that bind do so weakly or less than the wild type.
Columns and labels:
[1] = molecular target: HDAC3 (human (endogenous; cell line not named, all cell lines of the paper are human)) (UniProt O15379); assay: co-IP; cell lysates (cell line not stated; NP-40) immunoprecipitated with anti-Sp1 or anti-HDAC3 (control IgG), overnight at 4 °C, protein A/G; Western blot for EZH2, HDAC3, Sp1
[2] = molecular target: EZH2 (human (endogenous in 293T)) (UniProt Q15910); assay: co-IP; 293T cells transfected with HA-HDAC3; whole cell lysate (NP-40) immunoprecipitated with anti-HA or anti-EZH2 (control IgG), overnight at 4 °C, protein A/G; Western blot for HA, Sp1, EZH2, HDAC3
[3] = molecular target: HA-tagged full-length HDAC3 (UniProt O15379); assay: as above
[4] = molecular target: Sp1 (human (endogenous in 293T)) (UniProt P08047); assay: co-IP; cell lysates (cell line not stated; NP-40) immunoprecipitated with anti-Sp1 or anti-HDAC3 (control IgG), overnight at 4 °C, protein A/G; Western blot for EZH2, HDAC3, Sp1

Protein sequences, listed by entry. Tags and fused reporters are not part of them.
UniProt O15379: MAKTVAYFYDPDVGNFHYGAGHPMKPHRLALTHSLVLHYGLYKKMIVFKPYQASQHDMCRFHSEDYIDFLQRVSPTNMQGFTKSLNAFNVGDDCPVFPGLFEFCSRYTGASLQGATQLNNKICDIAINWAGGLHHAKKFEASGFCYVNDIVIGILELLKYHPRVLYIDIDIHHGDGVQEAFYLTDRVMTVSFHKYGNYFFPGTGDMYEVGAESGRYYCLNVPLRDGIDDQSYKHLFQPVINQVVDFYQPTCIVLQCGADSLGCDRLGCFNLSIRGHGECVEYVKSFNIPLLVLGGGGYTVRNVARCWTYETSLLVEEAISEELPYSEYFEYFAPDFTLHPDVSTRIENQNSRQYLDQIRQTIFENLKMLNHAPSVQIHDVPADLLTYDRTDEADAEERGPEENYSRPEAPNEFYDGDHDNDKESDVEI
UniProt Q15910: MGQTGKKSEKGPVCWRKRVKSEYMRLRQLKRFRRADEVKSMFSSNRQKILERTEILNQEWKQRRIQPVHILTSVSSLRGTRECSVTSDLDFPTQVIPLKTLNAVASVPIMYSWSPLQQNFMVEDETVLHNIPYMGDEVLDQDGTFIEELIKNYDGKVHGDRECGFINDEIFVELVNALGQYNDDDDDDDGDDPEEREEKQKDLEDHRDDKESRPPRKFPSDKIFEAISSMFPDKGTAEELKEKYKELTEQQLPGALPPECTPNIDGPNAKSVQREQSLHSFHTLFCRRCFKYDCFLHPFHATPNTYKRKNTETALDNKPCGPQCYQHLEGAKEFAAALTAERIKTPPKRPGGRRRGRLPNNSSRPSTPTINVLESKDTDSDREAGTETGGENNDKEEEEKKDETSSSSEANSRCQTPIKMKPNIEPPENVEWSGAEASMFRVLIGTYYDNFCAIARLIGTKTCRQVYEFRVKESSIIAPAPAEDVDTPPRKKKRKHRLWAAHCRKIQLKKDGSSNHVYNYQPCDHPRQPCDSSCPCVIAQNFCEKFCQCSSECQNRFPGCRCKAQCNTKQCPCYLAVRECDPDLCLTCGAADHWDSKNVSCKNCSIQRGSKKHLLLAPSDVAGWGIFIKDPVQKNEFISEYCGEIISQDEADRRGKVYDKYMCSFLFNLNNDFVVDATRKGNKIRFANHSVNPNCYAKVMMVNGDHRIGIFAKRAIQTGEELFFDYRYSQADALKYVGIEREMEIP
UniProt P08047: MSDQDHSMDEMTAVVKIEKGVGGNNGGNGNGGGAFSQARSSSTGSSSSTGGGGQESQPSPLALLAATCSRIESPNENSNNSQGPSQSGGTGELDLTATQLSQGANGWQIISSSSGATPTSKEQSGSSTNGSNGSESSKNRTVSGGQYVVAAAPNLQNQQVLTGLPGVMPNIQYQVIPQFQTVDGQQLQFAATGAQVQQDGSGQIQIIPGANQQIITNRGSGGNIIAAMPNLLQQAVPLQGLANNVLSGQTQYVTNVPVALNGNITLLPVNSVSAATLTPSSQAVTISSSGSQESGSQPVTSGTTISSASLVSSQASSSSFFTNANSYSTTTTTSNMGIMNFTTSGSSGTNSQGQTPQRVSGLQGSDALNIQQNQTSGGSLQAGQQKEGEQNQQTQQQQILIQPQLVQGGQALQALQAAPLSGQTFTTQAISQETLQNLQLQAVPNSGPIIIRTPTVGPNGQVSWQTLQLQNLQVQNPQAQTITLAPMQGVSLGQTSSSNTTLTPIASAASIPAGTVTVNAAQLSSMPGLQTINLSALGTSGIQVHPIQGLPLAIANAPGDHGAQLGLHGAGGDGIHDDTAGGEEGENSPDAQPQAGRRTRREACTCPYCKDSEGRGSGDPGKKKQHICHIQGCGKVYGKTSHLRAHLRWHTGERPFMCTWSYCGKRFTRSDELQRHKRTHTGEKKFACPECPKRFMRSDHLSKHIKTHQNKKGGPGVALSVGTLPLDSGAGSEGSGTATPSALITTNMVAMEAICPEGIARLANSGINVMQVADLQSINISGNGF

binding [1] | binding [2] | binding [3] | binding [4] | Substance
binds | binds | binds |  | Sp1 (from UniProt P08047 1-785)
 |  |  | binds | HDAC3 (from UniProt O15379 1-428)
 | binds |  |  | HA-tagged full-length HDAC3 (from UniProt O15379 1-428)
